Measured values: doi:10.1101/2025.09.02.673672

How the values were obtained:
[1] = target: PRRSV nsp12-mCherry (PRRSV strain VR2332); assay: co-IP
[2] = target: PRRSV nsp12-mCherry (PRRSV strain VR2332); assay: co-IP; remark: listed apart in the source

B1: HA-tagged NDP52 (receptor, UniProt Q13137 1-446)
chain: MEETIKDPPTSAVLLDHCHFSQVIFNSVEKFYIPGGDVTCHYTFTQHFIPRRKDWIGIFRVGWKTTREYYTFMWVTLPIDLNNKSAKQQEVQFKAYYLPKDDEYYQFCYVDEDGVVRGASIPFQFRPENEEDILVVTTQGEVEEIEQHNKELCKENQELKDSCISLQKQNSDMQAELQKKQEELETLQSINKKLELKVKEQKDYWETELLQLKEQNQKMSSENEKMGIRVDQLQAQLSTQEKEMEKLVQGDQDKTEQLEQLKKENDHLFLSLTEQRKDQKKLEQTVEQMKQNETTAMKKQQELMDENFDLSKRLSENEIICNALQRQKERLEGENDLLKRENSRLLSYMGLDFNSLPYQVPTSDEGGARQNPGLAYGNPYSGIQESSSPSPLSIKKCPICKADDICDHTLEQQQMQPLCFNCPICDKIFPATEKQIFEDHVFCHSL
binding [1]: binds
binding [2]: binds

Where two headings read alike, the source gives them in different places. No constants are given. Whether binding was seen depends on the method and setting. In cells and extracts the contact can be indirect. Binding calls can cover weak binding; strength is not graded here. Sequences can lack the tags named with a protein.
